Measured values reported in paper PMC7782530.
No constants are given. Whether binding was seen depends on the method and setting. Binding seen in cells or lysates may run through a third protein. Some results given as binding are weak or reduced against the parent protein; the word gives no strength.

By UniProt entry, the sequences of proteins in these tests, tags left out.
UniProt Q92597: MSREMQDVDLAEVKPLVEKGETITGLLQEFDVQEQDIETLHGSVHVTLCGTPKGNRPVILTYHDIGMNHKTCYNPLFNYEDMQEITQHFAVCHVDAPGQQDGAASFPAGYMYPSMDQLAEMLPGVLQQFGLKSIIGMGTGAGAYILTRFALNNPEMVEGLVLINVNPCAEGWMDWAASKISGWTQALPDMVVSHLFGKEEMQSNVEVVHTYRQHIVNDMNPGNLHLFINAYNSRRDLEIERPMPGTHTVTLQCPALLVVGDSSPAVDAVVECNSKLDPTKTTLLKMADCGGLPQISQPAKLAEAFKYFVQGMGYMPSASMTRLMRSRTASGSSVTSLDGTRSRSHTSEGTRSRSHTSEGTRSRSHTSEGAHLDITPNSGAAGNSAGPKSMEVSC
UniProt P10275: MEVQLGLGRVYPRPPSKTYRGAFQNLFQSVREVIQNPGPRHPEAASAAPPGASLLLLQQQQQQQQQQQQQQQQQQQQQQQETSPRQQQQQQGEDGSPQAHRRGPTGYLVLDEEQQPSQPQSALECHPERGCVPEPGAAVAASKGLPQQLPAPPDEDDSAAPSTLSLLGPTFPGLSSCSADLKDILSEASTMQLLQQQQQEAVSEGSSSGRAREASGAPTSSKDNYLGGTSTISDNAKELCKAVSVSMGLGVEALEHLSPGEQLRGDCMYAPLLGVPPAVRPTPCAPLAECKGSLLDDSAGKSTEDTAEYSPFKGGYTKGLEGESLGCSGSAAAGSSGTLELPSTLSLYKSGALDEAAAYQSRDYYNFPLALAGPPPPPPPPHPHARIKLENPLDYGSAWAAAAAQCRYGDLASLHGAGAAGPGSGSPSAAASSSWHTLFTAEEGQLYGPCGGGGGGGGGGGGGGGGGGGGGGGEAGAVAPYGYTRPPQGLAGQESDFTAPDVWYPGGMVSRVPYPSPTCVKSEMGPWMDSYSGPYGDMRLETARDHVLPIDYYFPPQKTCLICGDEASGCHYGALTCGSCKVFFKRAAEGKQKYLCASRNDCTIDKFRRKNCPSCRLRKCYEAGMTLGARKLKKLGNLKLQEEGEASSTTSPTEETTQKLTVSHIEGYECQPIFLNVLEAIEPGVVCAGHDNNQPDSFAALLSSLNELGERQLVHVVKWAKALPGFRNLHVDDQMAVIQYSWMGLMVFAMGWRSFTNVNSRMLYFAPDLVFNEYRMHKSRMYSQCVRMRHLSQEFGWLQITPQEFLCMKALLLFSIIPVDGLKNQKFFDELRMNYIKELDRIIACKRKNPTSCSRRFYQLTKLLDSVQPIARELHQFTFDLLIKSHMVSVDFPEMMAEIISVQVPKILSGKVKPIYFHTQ

Molecular target: N-Myc Downstream-Regulated Gene 1 (NDRG1), endogenous in LNCaP cells (human (endogenous in LNCaP)) (UniProt Q92597)
Assay: co-IP; endogenous NDRG1 immunoprecipitated from LNCaP cells, with or without PIM1 overexpression; western blot for AR

binding: binds
Substance: androgen receptor (AR), endogenous in LNCaP cells (from UniProt P10275 1-920)
